The target in experiment [1] is FLAG-tagged SURF4 (surfeit protein locus 4) (UniProt O15260). Put plainly: cross-linking + co-IP; CHO-K1 Tet-on cells (500 ng/ml doxycycline, 20 hr) cross-linked with 1 mM DSP for 2 hr on ice; Nonidet lysis buffer; anti-FLAG-M2 agarose overnight at 4°C; four RIPA washes; α1AT detected by immunoblot; cells with 7xHis-SURF4 as control. For orientation: In western blotting, separated proteins are transferred to a membrane and probed.

Sequences of proteins named here, by UniProt entry; tags and fusion partners are left off. A change or cut given only in a name is not applied to a line headed by its entry. A line that says so, or that is headed by a name, gives the form on record, which may keep a tag or linker. Residues count along the entry.
UniProt O15260: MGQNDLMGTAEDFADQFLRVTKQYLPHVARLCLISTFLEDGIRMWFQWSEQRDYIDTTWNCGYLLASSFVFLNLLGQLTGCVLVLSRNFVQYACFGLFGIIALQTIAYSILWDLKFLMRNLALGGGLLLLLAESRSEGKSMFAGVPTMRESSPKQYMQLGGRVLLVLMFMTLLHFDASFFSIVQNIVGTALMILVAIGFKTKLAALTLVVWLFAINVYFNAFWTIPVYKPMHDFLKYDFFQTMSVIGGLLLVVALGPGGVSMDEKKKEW
α1-antitrypsin, wild type (α1AT^WT) (P01009, residues 25-418): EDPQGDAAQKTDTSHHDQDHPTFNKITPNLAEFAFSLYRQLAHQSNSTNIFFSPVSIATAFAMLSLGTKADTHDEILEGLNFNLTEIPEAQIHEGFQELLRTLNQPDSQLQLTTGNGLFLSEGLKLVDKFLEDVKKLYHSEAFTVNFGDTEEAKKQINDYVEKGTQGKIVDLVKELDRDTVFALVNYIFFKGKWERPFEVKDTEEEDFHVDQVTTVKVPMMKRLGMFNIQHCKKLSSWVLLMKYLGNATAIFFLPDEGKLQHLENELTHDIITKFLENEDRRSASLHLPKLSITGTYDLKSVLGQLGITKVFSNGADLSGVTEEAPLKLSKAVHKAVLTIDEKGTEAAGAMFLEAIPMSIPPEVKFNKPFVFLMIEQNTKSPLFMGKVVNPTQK
α1-antitrypsin King's variant (α1AT^H334D) (P01009, form named): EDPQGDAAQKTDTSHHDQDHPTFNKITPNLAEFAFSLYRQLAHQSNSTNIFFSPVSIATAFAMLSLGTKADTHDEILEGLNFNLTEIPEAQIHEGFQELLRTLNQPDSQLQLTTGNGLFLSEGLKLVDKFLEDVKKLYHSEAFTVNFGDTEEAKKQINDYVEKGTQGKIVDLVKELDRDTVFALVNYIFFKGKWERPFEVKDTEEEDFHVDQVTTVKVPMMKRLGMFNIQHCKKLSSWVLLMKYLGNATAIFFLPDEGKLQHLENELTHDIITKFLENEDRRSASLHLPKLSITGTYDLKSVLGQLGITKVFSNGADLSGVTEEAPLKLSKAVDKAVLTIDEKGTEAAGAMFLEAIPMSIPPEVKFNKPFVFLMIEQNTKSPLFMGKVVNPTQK

The target of experiment [2] is 7xHis-tagged SURF4 (surfeit protein locus 4) (UniProt O15260). Description: cross-linking + pull-down; same DSP-cross-linked CHO-K1 lysates; Ni-NTA agarose under denaturing conditions (8 M urea, 10 mM imidazole) overnight at RT; washes with 8 M urea and 10, 20 or 30 mM imidazole; α1AT detected by immunoblot; cells with FLAG-SURF4 as control.

No constants are given. Whether binding was seen depends on the method and setting. Binding seen in cells or lysates may run through a third protein. Some binding calls cover weakened binding; strength is not graded here.

Regarding “α1-antitrypsin King's variant (α1AT^H334D) (from UniProt P01009 25-418)”, the binding entry in experiment [1] and in experiment [2] was “binds” each time.
Regarding “α1-antitrypsin, wild type (α1AT^WT) (from UniProt P01009 25-418)”, the binding entry in experiment [1] and in experiment [2] was “binds” in each case.

The record behind these values is PMC8149808.
